According to patent US6965113B2, “Fluorescence intensity multiple distributions analysis: concurrent determination of diffusion times and molecular brightness” (Evotec AG, priority 2000, dated 2005):
At least one compound was matched to its structure with a doubt left. Square brackets hold non-standard residues; d marks the D form. Peptide text beside a SMILES is read from it. * marks the point of attachment. X2 = CCN1C(=CC=CC=CC2=[N+](CCCCCC(=O)*)c3ccc(S(=O)(=O)O)cc3C2(C)C)C(C)(C)c2cc(S(=O)(=O)[O-])ccc21; pY = N[C@@H](Cc1ccc(OP(=O)(O)O)cc1)C(=O)O

Chains of the proteins cited; added tags and fusions are not shown. Residues count along the entry.
UniProt P62993, 60-152 limits assumed: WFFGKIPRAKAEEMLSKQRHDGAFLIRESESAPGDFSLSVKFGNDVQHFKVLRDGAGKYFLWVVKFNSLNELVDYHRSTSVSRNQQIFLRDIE

Molecular target: T1, SH2 domain of Grb2 (Homo sapiens, UniProt P62993)
T1 construct: as a model system, the bare SH2 domain (14.3 kDa) has been chosen; made in house
Assay: Experiment 1: titration of SH2 against constant 0.4 nM pTyr-Val-Asn-Val-Lys(Cy5), confocal fluorescence fluctuation measurement (FIMDA, FCS, FIDA), hyperbolic fit of fraction bound
Conditions: 0.4 nM conjugate, 50 mM Na-phosphate buffer pH 7.8, 50 mM NaCl, 0.05% Pluronic, T=20° C., read-out: binding constant KD for the SH2-phosphopeptide interaction
From the text: The central optical part of the present FIMDA experiment is a confocal microscope as it is used in fluorescence correlation spectroscopy (Koppel et al., Biophys. J. 16: 1315-1329, 1976: Rigler et al., Eur. Biophys. J. 22: 169-175, 1993). For the excitation of fluorescence, a beam from a continuous wave laser is attenuated to ˜800 μW by neutral density filters, passes a beam expander, and is directed to the microscope objective (UApo/340, 40x, N.A. 1.15, Olympus Optical Co. Ltd., Tokyo, Japan) by a dichroic mirror. Fluorescence is collected by the said objective through the dichroic mirror, a spectral band-pass filter, and is focused to a confocal pinhole, which serves to reject the out-of-focus light. The light, which passes the pinhole, is detected by a silicon photon counting module (SPCM-AQ-131, EG&G Optoelectronics, Vaudreuil, Canada). […]
A series of simultaneously measured or simulated distributions is globally fitted using a Marquardt algorithm. […] Theoretical distributions are calculated using exactly the same algorithm as in FIDA, except that each species has an individual apparent concentration and an apparent brightness at each time window, calculated according to Eqs. […]

## CCN1C(=CC=CC=CC2=[N+](CCCCCC(=O)NCCCC[C@H](NC(=O)[C@@H](NC(=O)[C@H](CC(N)=O)NC(=O)[C@@H](NC(=O)[C@@H](N)Cc3ccc(OP(=O)(O)O)cc3)C(C)C)C(C)C)C(=O)O)c3ccc(S(=O)(=O)O)cc3C2(C)C)C(C)(C)c2cc(S(=O)(=O)[O-])ccc21 [pTyr-Val-Asn-Val-Lys(Cy5)] (H-[pY]VNVK(X2)-OH)
  Kd: 1.54 ± 0.14 µM
